In article PMC11768584 (Viruses, 2025) one finds CC50 data, which are given here for 1 compound.

The nature of this data set: in vitro. To be noted: human.

As for `COC(=O)C1=C(C)NC(C)=C(C(=O)OC)C1c1ccccc1[N+](=O)[O-]` [Nifidipine, nifedipine], the CC50 is above 100 µM.
